PubChem BioAssay AID652259 | Drosophila RNAi Screening Center – 2013
In all, the deposit lists about 22,000 reagents; this is a random part of those that have a named target and a result. Over the whole deposit, 233 (1.1%) were called active. 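Light values are raw, unnormalised plate reads; the ratio scores behind the reporter calls were not deposited.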 The numbers tell different reagents against one gene apart. The record does not give: the amount of reagent, the time to read-out, the dose of the treatment.

Test: 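Genome-wide hunt for genes that control Wingless pathway activity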 (primary screen)
Cell system: Drosophila clone 8 imaginal disc epithelial cells
Reagents: long dsRNA against Drosophila genes
Conditions: pathway stimulated by co-transfected Wingless expression plasmid
Measurement: 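Firefly luciferase from a tcf-site Wingless reporter, measured alongside co-transfected Renilla luciferase that tracks transfection; pathway stimulated by a Wingless plasmid; the firefly-to-Renilla ratio is not deposited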
Reading the numbers: firefly reporter light: higher = more Wg reporter light, before normalisation; Renilla control light: higher = more transfected or surviving cells
Call rule: 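Strong candidates differ from their plate mean by at least two out of four per-plate statistical tests; weak candidates meet just one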
Meaning of the calls: active = candidate regulator (raises or lowers reporter); inactive = not a candidate

| Target gene | reagent | reporter change call, replicate 1 | firefly reporter light, replicate 1 | firefly reporter light, replicate 2 | Renilla control light, replicate 1 | Renilla control light, replicate 2 | Outcome |
| --- | --- | --- | --- | --- | --- | --- | --- |
| CG42329 | 1 | – | 2332 | 5917 | 1072 | 2438 | inactive |
| CG42329 | 2 | – | 1936 | 6640 | 912 | 3014 | inactive |
| lov (jim lovell) | 1 | – | 2321 | 9445 | 685 | 4032 | inactive |
| CG4199 | 1 | – | 2420 | 4241 | 887 | 2108 | inactive |
| CG4199 | 2 | – | 4.12e5 | 4.89e5 | 2.70e5 | 2.01e5 | inactive |
| RpL19 (Ribosomal protein L19) | 1 | – | 11397 | – | 2394 | – | inactive |
| GluRS-m (Glutamyl-tRNA synthetase, mitochondrial) | 1 | – | 9410 | – | 3303 | – | inactive |
| CG13474 | 1 | – | 7937 | – | 1978 | – | inactive |
| Btnd (Biotinidase) | 1 | – | 15747 | – | 7434 | – | inactive |
| Nt5b (5' nucleotidase B) | 1 | – | 2069 | 7499 | 896 | 3312 | inactive |
| Nt5b (5' nucleotidase B) | 2 | – | 24581 | – | 12841 | – | inactive |
| Nt5b (5' nucleotidase B) | 3 | – | 17559 | – | 11315 | – | inactive |
| Nt5b (5' nucleotidase B) | 4 | – | 7.29e5 | 6.84e5 | 2.55e5 | 90366 | inactive |
| side-VIII (sidestep VIII) | 1 | – | 22875 | – | 23105 | – | inactive |
| side-VIII (sidestep VIII) | 2 | – | 31479 | – | 13461 | – | inactive |
| side-VIII (sidestep VIII) | 3 | – | 5728 | – | 2416 | – | inactive |
| rtet (tetracycline resistance) | 1 | – | 3898 | 9019 | 1793 | 3125 | inactive |
| CG30159 | 1 | – | 9946 | – | 4256 | – | inactive |
| CG1640 | 1 | – | 3482 | 9609 | 893 | 2704 | inactive |
| Nf-YB (Nuclear factor Y-box B) | 1 | – | 2067 | 8176 | 688 | 3068 | inactive |
| twin | 1 | – | 4327 | 6096 | 2394 | 2006 | inactive |
| twin | 2 | – | 27969 | – | 19410 | – | inactive |
| twin | 3 | – | 6.30e5 | 6.06e5 | 2.53e5 | 1.13e5 | inactive |
| CG15256 | 1 | – | 23616 | – | 12298 | – | inactive |
| CG15256 | 2 | – | 2296 | 4892 | 839 | 2535 | inactive |
| Su(dx) (Suppressor of deltex) | 1 | – | 14281 | – | 4339 | – | inactive |
| CG8520 | 1 | – | 9312 | – | 2629 | – | inactive |
| CG13228 | 1 | – | 6407 | – | 2445 | – | inactive |
| p24-1 (p24-related-1) | 1 | – | 16359 | – | 8605 | – | inactive |
| Epg5 (ectopic P-granules autophagy protein 5) | 1 | – | 16995 | – | 3553 | – | inactive |
| CG4752 | 1 | – | 3291 | 9810 | 1408 | 4696 | inactive |
| CG12496 | 1 | – | 22535 | – | 8593 | – | inactive |
| Sox14 (Sox box protein 14) | 1 | – | 4285 | 11376 | 1029 | 3232 | inactive |
| RyR (Ryanodine receptor) | 1 | – | 2648 | 5398 | 652 | 2259 | inactive |
| CG12025 | 1 | – | 6384 | – | 2492 | – | inactive |
| ATPsynCF6 (ATP synthase, coupling factor 6) | 1 | – | 19959 | – | 13700 | – | inactive |
| CG14316 | 1 | – | 14108 | – | 3888 | – | inactive |
| CG4297 | 1 | – | 2781 | 7186 | 1367 | 2912 | inactive |
| CG42810 | 1 | – | 1213 | 4608 | 848 | 2212 | inactive |
| CG14257 | 1 | – | 6794 | – | 2662 | – | inactive |
| CG14352 | 1 | – | 2416 | 5148 | 820 | 1728 | inactive |
| Pfdn4 (Prefoldin 4) | 1 | – | 1444 | 9216 | 1427 | 3524 | inactive |
| IleRS (Isoleucyl-tRNA synthetase) | 1 | – | 6707 | – | 2825 | – | inactive |
| Sxl (Sex lethal) | 1 | – | 2882 | 9984 | 921 | 2480 | inactive |
| Sxl (Sex lethal) | 2 | – | 26053 | – | 14022 | – | inactive |
| Sxl (Sex lethal) | 3 | – | 4.33e5 | 4.81e5 | 1.90e5 | 1.88e5 | inactive |
| Trf2 (TATA box binding protein-related factor 2) | 1 | Wg reporter activity raised | 1.57e5 | – | 8176 | – | active |
| Prosbeta2R2 (Proteasome beta2 subunit-related 2) | 1 | – | 13825 | – | 1987 | – | inactive |
| Uck (Uridine-cytidine kinase) | 1 | – | 2625 | – | 1415 | – | inactive |
| Uck (Uridine-cytidine kinase) | 2 | – | 16272 | – | 15958 | – | inactive |

Targets listed so far whose target name begins with R or r:
| Target gene | reagent | reporter change call, replicate 1 | firefly reporter light, replicate 1 | firefly reporter light, replicate 2 | Renilla control light, replicate 1 | Renilla control light, replicate 2 | Outcome |
| --- | --- | --- | --- | --- | --- | --- | --- |
| RpL19 (Ribosomal protein L19) | 1 | – | 11397 | – | 2394 | – | inactive |
| rtet (tetracycline resistance) | 1 | – | 3898 | 9019 | 1793 | 3125 | inactive |
| RyR (Ryanodine receptor) | 1 | – | 2648 | 5398 | 652 | 2259 | inactive |
